# PubChem BioAssay AID1224827, NIAID | 2016
# Aim: 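Identify regulators of the macrophage TNF-alpha response to bacterial LPS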 (follow-up of hits)
# System: RAW264.7 G9 mouse macrophage reporter clone
# Reagent: single siRNA against mouse genes, 100 nM siRNA
# Duration: siRNA for 2 days, then LPS about 16 h
# Treatment: bacterial lipopolysaccharide (LPS), 10 ng/ml, cells fixed after overnight (about 16 h) stimulation
# Detection: 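Imaged nuclear TNF reporter intensity, background removed, scaled per plate and to non-targeting control wells, as z-scores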
# Reading the numbers: TNF reporter z-score, mean and TNF reporter z-score: higher = stronger Tnf promoter reporter signal; gene median z, three same-vendor siRNAs: higher = stronger Tnf reporter signal for the gene
# Active means: 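An siRNA is called active when its mean z-score over replicates is at least +2 or at most -2; control wells get no call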
# Here is one part, drawn at random, of about 3,800 reagents tested. Over the whole deposit, about 2,200 (57%) were called active. 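Active means a strong reporter change in either direction; calls are per siRNA, not per gene; qiagen siRNAs gave weaker effects.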 The numbers tell different reagents against one gene apart.
gene,siRNA no.,"TNF reporter z-score, mean","gene median z, three same-vendor siRNAs","TNF reporter z-score, repeat 1","TNF reporter z-score, repeat 2",Call
Eif4ebp1,1,6.09,-1.47,4.02,8.17,active
Eif4ebp1,2,-1.47,-1.47,-1.97,-0.974,inactive
Eif4ebp1,3,-3.6,-1.47,-3.67,-3.54,active
Eif4ebp1,4,0.41,-1.5,1.05,-0.231,inactive
Eif4ebp1,5,-1.5,-1.5,-1.45,-1.55,inactive
Eif4ebp1,6,-3.39,-1.5,-3.54,-3.25,active
Nagpa,1,0.0396,-0.677,0.151,-0.0715,inactive
Nagpa,2,-0.0454,-0.677,-1.28,1.19,inactive
Nagpa,3,-4.95,-0.677,-4.62,-5.27,active
Nagpa,4,1.33,-0.0614,3.22,-0.549,inactive
Nagpa,5,-0.0614,-0.0614,0.0827,-0.206,inactive
Nagpa,6,-0.606,-0.0614,0.511,-1.72,inactive
Cntf,1,-0.0329,-2.14,-1.16,1.1,inactive
Cntf,2,-1.65,-2.14,-3.12,-0.175,inactive
Cntf,3,-4.87,-2.14,-4.85,-4.89,active
Cntf,4,1.76,-0.793,3.44,0.08,inactive
Cntf,5,-0.793,-0.793,-0.874,-0.712,inactive
Cntf,6,-2.5,-0.793,-1.62,-3.37,active
E130006D01Rik,1,-1.18,-2.2,-2.58,0.214,inactive
E130006D01Rik,2,-1.42,-2.2,-1.82,-1.03,inactive
E130006D01Rik,3,-3.55,-2.2,-3.28,-3.82,active
E130006D01Rik,4,0.102,-1.34,0.0931,0.111,inactive
E130006D01Rik,5,-1.34,-1.34,-0.814,-1.86,inactive
E130006D01Rik,6,-2.29,-1.34,-1.92,-2.66,active

Continued, starting with the last 3 of the part before.
gene,siRNA no.,"TNF reporter z-score, mean","gene median z, three same-vendor siRNAs","TNF reporter z-score, repeat 1","TNF reporter z-score, repeat 2",Call
E130006D01Rik,4,0.102,-1.34,0.0931,0.111,inactive
E130006D01Rik,5,-1.34,-1.34,-0.814,-1.86,inactive
E130006D01Rik,6,-2.29,-1.34,-1.92,-2.66,active
Aqp3,1,-0.269,-2.29,0.3,-0.838,inactive
Aqp3,2,-2.29,-2.29,-1.94,-2.65,active
Aqp3,3,-2.91,-2.29,-2.74,-3.08,active
Aqp3,4,5,-1.25,7.85,2.15,active
Aqp3,5,-1.34,-1.25,-1.13,-1.55,inactive
Aqp3,6,-2.48,-1.25,-1.37,-3.59,active
Large1,1,9.71,-0.537,8.73,10.7,active
Large1,2,-0.537,-0.537,-0.519,-0.554,inactive
Large1,3,-3.27,-0.537,-2.41,-4.13,active
Large1,4,0.454,-0.683,0.649,0.26,inactive
Large1,5,0.391,-0.683,2.41,-1.62,inactive
Large1,6,-2.79,-0.683,-3.92,-1.67,active
Nfatc3,1,8.47,-3.16,7.19,9.75,active
Nfatc3,2,-3.16,-3.16,-2.42,-3.9,active
Nfatc3,3,-5.36,-3.16,-5.6,-5.12,active
Nfatc3,4,1.1,-0.691,3.25,-1.06,inactive
Nfatc3,5,-0.713,-0.691,-1.1,-0.322,inactive
Nfatc3,6,-0.564,-0.691,1.19,-2.32,inactive
